Reference: PubChem BioAssay AID504594 (Broad Institute, 2011)
“And” between values parts separate entries of the source, which are not always exact repeats. Equal values may be shown once. In all, about 2,000 compounds went through this assay and fewer than 10 were called active.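 Rule for the calls: active = growth inhibition of at least 75% in every replicate, which also brings the mean inhibition to 75% or more; inconclusive = mean inhibition 75% or more but some replicate under 75%; inactive = the rest.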 This is one part of the list.

Assay: growth inhibition of PfHsp90-dependent yeast, primary screen, antimalarial PfHsp90 inhibitor project, S. cerevisiae, BacTiter-Glo luminescence (AID 504594);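 note: 0% = DMSO neutral control wells and 100% = 20 µM radicicol control wells; higher value means stronger growth inhibition because the sign is flipped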
Details: S. cerevisiae expressing PfHsp90, BacTiter-Glo growth, 48 h; at 9.4 µM; stronger effect = higher value

Growth inhibition, inactive:
CCCCCC(O)c1cccc(OCc2ccc3ccccc3n2)c1 (stereo not given) -0.258%, COc1ccc(C2CC(c3ccc([N+](=O)[O-])cc3)=NN2C(=O)c2ccccc2)cc1OC (stereo not given) -6.56%, CC(=O)N1CC2(C)CN(C(C)=O)CC(C)(C1)C2 -1.23%, O=c1ccn([C@@H]2O[C@H](CO)[C@@H](O)[C@H]2O)c(=O)[nH]1 -0.389%, Cc1cc(OC(C(=O)O)c2ccccc2)c2c(C)c(Cc3ccccc3)c(=O)oc2c1 (stereo not given) 10.3%, C[N+]12CCCCC1C(COC(=O)c1ccc3c(c1)OCO3)CCC2 (stereo not given) 1.34%, CCCCNc1cc(C(=O)O)cc(S(N)(=O)=O)c1Oc1ccccc1 -6.02%, CC1(C)CC(CC(=O)O)(c2ccc(Cl)cc2)CCO1 (stereo not given) 4.78%, COc1c2c(nc3occc13)C(CC=C(C)C)(OC)C(O)CC2 (stereo not given) 3.58%, CC(=O)N(CCC1(c2ccc(C)cc2)CCOC(C(C)C)C1)Cc1ccco1 (stereo not given) 8.66%, O=C(CCCN1C(=O)/C(=C\c2cccs2)SC1=S)Nc1ccccn1 -17.8%, O=C(O)CCn1cnc2ccccc2c1=O 3.53%, CC(=O)CCCCn1c(=O)c2c(ncn2C)n(C)c1=O 6.87%, O=C1CCCN1CCCn1cnc2c([nH]c3ccc(F)cc32)c1=O -13.8%, Cc1cccc2c(=O)n3c(nc12)CCCCC3 -0.943%, O=C(NCCN1CCOCC1)c1ccc(Cl)cc1 -11.2%, Cc1cc(OC(=O)CNC(=O)OC(C)(C)C)c2c(C)cc(=O)oc2c1 -4.76%, CCCCCC(=O)O[C@]1(C(C)=O)CC[C@H]2[C@@H]3CCC4=CC(=O)CC[C@]4(C)[C@H]3CC[C@@]21C -0.835%, CNCCCC12CCC(c3ccccc31)c1ccccc12 -0.462% and -4.64%, Oc1ccc(Oc2ncc(Cl)cc2Cl)cc1 3.39%, CCOC(=O)N1CCc2[nH]c3ccc(C)cc3c2C1 -0.0125%, Cc1nc(N[C@@H](Cc2c[nH]c3ccccc23)C(=O)O)c2oc3ccccc3c2n1 3.43%, O=C(Oc1ccccc1)Oc1ccc2c(c1)oc(=O)c1ccccc12 -11.1%, O=C(O)c1ccc(OCCn2ccnc2)cc1 -4.4%, C#C[C@]1(O)CC[C@H]2[C@@H]3CCc4cc(O)ccc4[C@H]3CC[C@@]21C -6.87%, Cc1occc(=O)c1O -24.5%, CCOCCn1c(C(C)O)nc2ccccc21 (stereo not given) -8.58%, COc1cc2c(cc1OC)C(c1ccccc1)=NCC2 -0.804%, CCC12CN3CC(CC)(CN(C1)C31C(=O)N(C)c3ccc(C)cc31)C2=O (stereo not given) -2.64%, Cn1cnc2c1c(=O)n(CC(O)CO)c(=O)n2C (stereo not given) -5.12%, CC(=O)OCC(=O)[C@@]1(O)[C@H](C)C[C@H]2[C@@H]3CCC4=CC(=O)C=C[C@]4(C)[C@@]3(F)[C@@H](O)C[C@@]21C 2.48%, Cc1ccccc1NC(=O)NCCc1c[nH]c2ccccc12 17.7%, O=c1c2[nH]c3ccccc3c2ncn1CCC1=CCCCC1 -4.48%, Nc1nc2c(ncn2COCCO)c(=O)[nH]1 -13.5%, COc1ccc2nc(Nc3nc(CSc4ccc(C)cc4)cc(=O)[nH]3)nc(C)c2c1 -3.26%, Cc1ccc([N+](=O)[O-])cc1NC1OC(CO)C(O)C1O (stereo not given) 8.08%, Cc1ccccc1NC(=O)c1c(C)cc(=O)oc1C 0.286%, O=C(CNC(=O)OCc1ccccc1)Oc1cc2oc(=O)cc(-c3ccccc3)c2cc1Cl -18.5%, CC1(C)Cc2nc3oc4c(NCc5ccccc5)ncnc4c3cc2CO1 0.415%, CCCC1O[C@@H]2C[C@H]3[C@@H]4CCC5=CC(=O)C=C[C@]5(C)[C@H]4[C@@H](O)C[C@]3(C)[C@]2(C(=O)CO)O1 (stereo not given in full) -1.85%, CC(=O)N1CCN2C(=O)C1CCCC(=O)c1cc(C(C)C)ccc12 (stereo not given) -1.87%, CCOC(=O)c1ncn2c1CN(C)C(=O)c1cc(F)ccc1-2 6%, CCOC(=O)Cc1c(C)nc(N)[nH]c1=O -8.02%, COc1cc(SC)ccc1C(=O)NC(C)C -1.25%, COc1ccc(C(=O)NCCC2=CCCCC2)cc1[N+](=O)[O-] 15.1%, Cc1oc2cc(O)cc(O)c2c(=O)c1-c1ccc2c(c1)OCCCO2 -2.88%, CC(C(=O)O)c1cccc(C(=O)c2ccccc2)c1 (stereo not given) 9.39%, Cc1ccc2nc(NC3=NC(CC(=O)O)C(=O)N3)nc(C)c2c1 (stereo not given) -13.3%, COc1ccc2[nH]c3c(c2c1)CCn1c-3nc2ccccc2c1=O 0.118%, CC(=O)[C@@]1(O)CC[C@H]2[C@@H]3C[C@H](C)C4=CC(=O)CC[C@]4(C)[C@H]3CC[C@@]21C -6.37%, CC1(C)S[C@@H]2[C@H](NC(=O)C(C(=O)O)c3ccccc3)C(=O)N2[C@H]1C(=O)O (stereo not given in full) 1.42%, OCC1(CCOc2ccccc2)CCN(CCCn2cccn2)CC1 -9.52%, Cn1c2ccc(CC(=O)O)cc2c2cc(CC(=O)O)ccc21 -2.96%, NS(=O)(=O)c1cc2c(cc1Cl)NC(CSCc1ccccc1)=NS2(=O)=O -3.54%, CCNC(=O)c1sc2cc(C)ccc2c1Cl 0.572%, COc1cc(NC(=O)N[C@@H](Cc2ccccc2)C(=O)O)cc(OC)c1 5.35%, Cc1cc(NS(=O)(=O)c2ccc(N)cc2)no1 2.57%, Oc1ccc(COCc2ccccc2)c2cccnc12 -6.18%, O=C(O)c1cc2cc(Cl)cc(Cl)c2oc1=O -6.7%, C[C@]12C[C@H](O)[C@H]3[C@@H](CCC4=CC(=O)CC[C@@]43C)[C@@H]1CC[C@@H]2C(=O)CO -1.92%
